Read-outs that look alike come from different tables or passages of the source. The exact form of at least one protein or probe is not confirmed. For some of these results: Negatives hold for the conditions tested.
What was measured:
Experiment in all cases: EMSA
GST-S-HsfA2 = GST-S-HsfA2 (UniProt J7G1E7)
His6-S-HsfB1 = system: His6-S-HsfB1
His6-S-HsfB2a = system: His6-S-HsfB2a

Sequence	binding result (GST-S-HsfA2; weakened by unlabelled HRE competitor)	binding result (His6-S-HsfB1)	binding result (His6-S-HsfB2a)	binding result (GST-S-HsfA2)
GAAGAAGGAAGAAGGAAGAAG (double strand) [3xHRE probe]	binds	binds	no binding	
TCCTCCTTCCTCCTTCCTCCT (double strand) [3xmHRE probe]				no binding

— article doi:10.1101/2024.06.03.597204
